Measured values as given in PubChem BioAssay AID2662 (National Center for Advancing Translational Sciences (NCATS), 2010).
In all, about 290,000 compounds went through this assay and about 110 (0.038%) were called active. The shares of active, inactive and inconclusive entries below differ from those in the screen. The call rests on the fitted dose curve; in most records, active means well fitted inhibition curve with a large enough effect in the polarisation, with a control signal flat (not every such curve was filed as active); inconclusive means small, poorly fitted or top-dose-only effect, or effect the other way, or a change in a side signal; inactive means no such curve, though single readings can be large or run the other way; the % refers to the polarisation. Where the call is inconclusive, the potency comes from a doubtful curve fit. A note “side channel” means that the fit belongs to a control or component signal, not to the main read-out.

Sequences of proteins named here, by UniProt entry; tags and fusion partners are left off.
UniProt Q03164, whole entry, looked up: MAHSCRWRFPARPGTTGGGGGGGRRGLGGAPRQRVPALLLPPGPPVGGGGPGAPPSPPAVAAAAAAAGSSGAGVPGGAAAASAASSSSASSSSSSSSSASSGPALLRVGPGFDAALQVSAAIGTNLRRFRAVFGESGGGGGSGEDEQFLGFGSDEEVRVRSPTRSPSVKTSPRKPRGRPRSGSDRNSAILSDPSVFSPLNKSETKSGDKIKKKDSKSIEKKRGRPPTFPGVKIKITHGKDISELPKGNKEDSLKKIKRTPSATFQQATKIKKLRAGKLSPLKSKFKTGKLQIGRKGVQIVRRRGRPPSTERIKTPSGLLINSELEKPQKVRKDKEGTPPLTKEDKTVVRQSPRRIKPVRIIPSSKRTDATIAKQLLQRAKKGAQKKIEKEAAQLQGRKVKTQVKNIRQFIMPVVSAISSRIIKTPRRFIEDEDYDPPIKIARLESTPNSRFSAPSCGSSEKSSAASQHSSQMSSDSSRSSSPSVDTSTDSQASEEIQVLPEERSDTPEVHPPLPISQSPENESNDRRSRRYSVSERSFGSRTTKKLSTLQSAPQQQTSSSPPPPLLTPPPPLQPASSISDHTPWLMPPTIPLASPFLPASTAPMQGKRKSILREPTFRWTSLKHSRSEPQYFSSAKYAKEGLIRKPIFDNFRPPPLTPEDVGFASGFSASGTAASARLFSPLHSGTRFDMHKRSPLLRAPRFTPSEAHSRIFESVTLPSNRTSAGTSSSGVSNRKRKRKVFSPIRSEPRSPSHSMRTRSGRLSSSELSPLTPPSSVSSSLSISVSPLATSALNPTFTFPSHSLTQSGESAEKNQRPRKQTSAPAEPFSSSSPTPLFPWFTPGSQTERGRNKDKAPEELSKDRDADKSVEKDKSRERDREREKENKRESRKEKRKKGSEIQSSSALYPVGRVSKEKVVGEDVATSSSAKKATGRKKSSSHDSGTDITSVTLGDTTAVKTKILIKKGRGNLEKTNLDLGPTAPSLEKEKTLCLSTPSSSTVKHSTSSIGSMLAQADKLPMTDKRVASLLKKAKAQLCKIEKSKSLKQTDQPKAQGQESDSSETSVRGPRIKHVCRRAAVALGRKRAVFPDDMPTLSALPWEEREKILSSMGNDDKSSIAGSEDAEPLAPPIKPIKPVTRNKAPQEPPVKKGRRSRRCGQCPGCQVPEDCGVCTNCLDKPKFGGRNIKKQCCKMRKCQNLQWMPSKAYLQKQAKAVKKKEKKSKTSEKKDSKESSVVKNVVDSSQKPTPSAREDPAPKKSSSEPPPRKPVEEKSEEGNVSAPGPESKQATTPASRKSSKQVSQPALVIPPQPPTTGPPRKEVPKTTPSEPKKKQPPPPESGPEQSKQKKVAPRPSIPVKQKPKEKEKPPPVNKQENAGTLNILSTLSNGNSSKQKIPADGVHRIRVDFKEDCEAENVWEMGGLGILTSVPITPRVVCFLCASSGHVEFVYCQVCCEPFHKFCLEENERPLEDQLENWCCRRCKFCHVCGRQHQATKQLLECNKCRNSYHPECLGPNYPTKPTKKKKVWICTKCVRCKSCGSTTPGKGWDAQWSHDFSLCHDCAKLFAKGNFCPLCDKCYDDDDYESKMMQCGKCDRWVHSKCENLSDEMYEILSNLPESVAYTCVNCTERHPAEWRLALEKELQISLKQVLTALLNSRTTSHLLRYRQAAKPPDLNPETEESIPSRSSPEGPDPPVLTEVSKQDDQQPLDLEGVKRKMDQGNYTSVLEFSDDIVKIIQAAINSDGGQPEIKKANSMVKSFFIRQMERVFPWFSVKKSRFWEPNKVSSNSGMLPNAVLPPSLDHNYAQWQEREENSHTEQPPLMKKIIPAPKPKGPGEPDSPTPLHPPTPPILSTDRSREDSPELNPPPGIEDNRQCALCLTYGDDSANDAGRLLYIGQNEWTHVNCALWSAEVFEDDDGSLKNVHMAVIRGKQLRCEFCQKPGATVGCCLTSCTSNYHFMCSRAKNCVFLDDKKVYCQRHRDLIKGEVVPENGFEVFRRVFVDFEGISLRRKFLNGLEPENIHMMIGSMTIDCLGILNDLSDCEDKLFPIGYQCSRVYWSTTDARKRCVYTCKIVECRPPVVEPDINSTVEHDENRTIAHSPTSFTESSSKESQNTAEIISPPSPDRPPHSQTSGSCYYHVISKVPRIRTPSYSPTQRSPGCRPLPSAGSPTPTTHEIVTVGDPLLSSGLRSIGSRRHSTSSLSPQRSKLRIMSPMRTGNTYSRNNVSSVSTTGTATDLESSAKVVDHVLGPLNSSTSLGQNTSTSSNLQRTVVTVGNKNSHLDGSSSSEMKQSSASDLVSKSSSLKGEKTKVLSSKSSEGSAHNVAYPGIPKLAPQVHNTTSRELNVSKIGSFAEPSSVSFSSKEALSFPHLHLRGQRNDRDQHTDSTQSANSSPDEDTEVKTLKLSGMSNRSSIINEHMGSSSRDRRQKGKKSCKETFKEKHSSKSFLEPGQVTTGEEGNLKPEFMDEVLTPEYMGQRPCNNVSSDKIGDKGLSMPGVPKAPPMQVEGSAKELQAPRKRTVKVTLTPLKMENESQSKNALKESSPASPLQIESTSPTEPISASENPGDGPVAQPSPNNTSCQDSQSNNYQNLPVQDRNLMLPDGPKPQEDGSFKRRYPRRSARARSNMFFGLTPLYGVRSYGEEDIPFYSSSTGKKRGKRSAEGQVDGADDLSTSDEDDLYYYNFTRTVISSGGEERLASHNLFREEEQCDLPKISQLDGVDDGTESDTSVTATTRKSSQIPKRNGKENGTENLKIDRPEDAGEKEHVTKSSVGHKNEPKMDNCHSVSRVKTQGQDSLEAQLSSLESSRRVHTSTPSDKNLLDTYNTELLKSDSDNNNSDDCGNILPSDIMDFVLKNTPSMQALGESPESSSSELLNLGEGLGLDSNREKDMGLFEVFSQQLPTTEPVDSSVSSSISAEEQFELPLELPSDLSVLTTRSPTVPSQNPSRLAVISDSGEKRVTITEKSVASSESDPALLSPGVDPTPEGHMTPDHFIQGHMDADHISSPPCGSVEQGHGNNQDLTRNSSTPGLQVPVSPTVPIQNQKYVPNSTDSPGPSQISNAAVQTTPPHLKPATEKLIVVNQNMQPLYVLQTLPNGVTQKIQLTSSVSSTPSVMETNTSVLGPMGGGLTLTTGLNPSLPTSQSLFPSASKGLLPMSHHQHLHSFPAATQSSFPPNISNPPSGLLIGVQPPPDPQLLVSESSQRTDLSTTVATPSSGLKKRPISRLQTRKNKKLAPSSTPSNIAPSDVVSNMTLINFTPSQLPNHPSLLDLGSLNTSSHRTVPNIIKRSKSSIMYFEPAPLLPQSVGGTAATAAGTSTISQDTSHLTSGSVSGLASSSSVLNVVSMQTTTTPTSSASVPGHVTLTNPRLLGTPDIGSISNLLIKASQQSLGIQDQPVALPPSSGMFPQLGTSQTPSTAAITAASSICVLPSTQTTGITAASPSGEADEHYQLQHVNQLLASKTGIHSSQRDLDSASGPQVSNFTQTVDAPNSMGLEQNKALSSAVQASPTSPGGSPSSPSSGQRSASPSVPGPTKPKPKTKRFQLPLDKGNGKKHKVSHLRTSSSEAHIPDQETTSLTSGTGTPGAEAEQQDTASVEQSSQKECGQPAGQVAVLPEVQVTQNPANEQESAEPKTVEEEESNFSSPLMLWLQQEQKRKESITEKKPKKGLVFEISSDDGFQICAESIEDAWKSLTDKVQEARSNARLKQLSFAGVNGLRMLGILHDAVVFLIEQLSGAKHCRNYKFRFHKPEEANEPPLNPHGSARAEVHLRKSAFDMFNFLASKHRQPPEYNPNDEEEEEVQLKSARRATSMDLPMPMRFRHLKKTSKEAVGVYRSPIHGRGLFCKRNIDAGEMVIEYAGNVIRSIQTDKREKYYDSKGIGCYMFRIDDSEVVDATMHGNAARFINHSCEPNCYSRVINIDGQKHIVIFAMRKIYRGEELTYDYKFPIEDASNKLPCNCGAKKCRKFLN

target: Histone-lysine N-methyltransferase 2A (Homo sapiens) (UniProt Q03164); experiment: qHTS Fluorescence Polarization Assay for Inhibitors of MLL CXXC domain - DNA interaction; details: MLL-CXXC / FITC-HOXA9 DNA fluorescence polarization; activity change, negative = inhibition: at 115 µM (top of the series)
Procedure, shortened: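 Steps: dispense CXXC domain solution (7 uM) → pin compounds or unlabeled HOX-A9 DNA control → 5 min ambient → add FLSN-HOX-A9 solution (50 nM) → spin → 30 min ambient → fluorescence polarization. Tris pH 7.5/NaCl/DTT/BSA buffer.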
Potency means the concentration at half of the fitted maximal effect.

SMILES	Potency	activity change, negative = inhibition
CC1(C)CC(=O)C2=C(C1)NC1=C(C(=O)c3ccccc31)C2c1ccc(O)cc1 (stereo not given)	inconclusive: 35.5 µM [quencher, side channel, single point]	
Cn1c(O)c(C2=c3ccccc3=NC2=O)[nH]c1=S	inconclusive: 35.5 µM [quencher, side channel, single point]	
O=C(CSc1nc(-c2ccccc2)nc2c1Cc1ccccc1O2)Nc1ccc(C(=O)O)cc1	inconclusive: 35.5 µM [inhibitor, single point]	
Cc1c(O)ccc(/C=N/Nc2nc(-c3cccnc3)nc3ccccc23)c1O		inactive: -9.24%
Cc1cn(C2OC(COC(=O)c3ccccc3)C(OC(=O)c3ccccc3)C2OC(=O)c2ccccc2)c(=O)[nH]c1=O (stereo not given)		inactive: -9.54%
CCOc1cc(/C=N/N=C(N)N)ccc1OCc1ccc(Cl)cc1	inconclusive: 44.7 µM [quencher, side channel, single point]	
Cc1cccn2c(NCc3ccc4c(c3)OCO4)c(-c3ccc(O)cc3)nc12		inactive: -1.61%
CCOc1cc(CNCCO)cc(Br)c1OCc1ccc(Cl)cc1Cl	inconclusive: 11.2 µM [quencher, side channel, full curve]	
COc1ccccc1CNCC(=O)Nc1ccccc1-n1cccc1	inconclusive: 28.2 µM [fluorescent, side channel, partial curve]	
O=C(Nc1cccc([N+](=O)[O-])c1)Nc1cnccn1	inconclusive: 14.1 µM [fluorescent, side channel, single point]	
CCn1c(O)c(N=Nc2ccc3ccccc3n2)c2ccccc21	inconclusive: 39.8 µM [fluorescent, side channel, single point]	
CCCOc1ccc(C2C(C(=O)c3ccc(C)o3)=C(O)C(=O)N2Cc2ccco2)cc1OCC (stereo not given)		inactive: -13.9%
N#CC(C#N)=C1c2cc(S(=O)(=O)NCCO)ccc2-c2ccc(S(=O)(=O)NCCO)cc21		inactive: -1.14%
Cn1c(/C(C#N)=C(\O)c2ccc(S(=O)(=O)N3CCCCC3)cc2)nc2ccccc21	inconclusive: 15.8 µM [inhibitor, single point]	
CC(=O)Nc1ccc(S(=O)(=O)N2CCN(c3cc(C)nc4ccccc34)CC2)cc1		inactive: 6.04%
O=C(CN1CCS(=O)(=O)CC1)N/N=C/c1cccc(C(F)(F)F)c1	inconclusive: 14.1 µM [quencher, side channel, single point]	
CCOC(=O)Cc1c(C)nc2c(C#N)c[nH]n2c1=O		inactive: 6.87%
O=[N+]([O-])c1cc(-c2nnc(Nc3ccccc3)c3ccccc23)ccc1N1CCOCC1		inactive: 4.52%
CCn1c(SC)nc(O)c(C(c2ccc(OC)c(O)c2)c2c(O)nc(SC)n(CC)c2=O)c1=O	inconclusive: 31.6 µM [inhibitor, single point]	
CCCn1c(NC(=O)c2ccc(Br)cc2)nc2ccccc21		inactive: -11.6%
O=C(CN1CCC(c2nc3ccccc3s2)CC1)N1CCCCC1	inconclusive: 35.5 µM [fluorescent, side channel, partial curve]	
COc1cc(S(=O)(=O)Nc2ncccc2C)c(OC)cc1Cl		inactive: 1.53%

SMILES	Potency	activity change, negative = inhibition
Cc1cc(C)nc(SCCCn2c(=O)[nH]c3ccccc32)n1		inactive: -2.94%
CNC(=O)c1[nH]cnc1C(=O)Nc1ccc(F)cc1	inconclusive: 63.1 µM [fluorescent, side channel, single point]	
CCN(CC)C1CCN(C(=O)CCn2nnnc2CN2CCOCC2)C1 (stereo not given)	inconclusive: 14.1 µM [fluorescent, side channel, single point]	
Cc1ccccc1C(=O)NC1CCN(C(=O)Nc2ccc(F)cc2)CC1	inconclusive: 70.8 µM [fluorescent, side channel, single point]	
COc1ccccc1C(=O)Nc1ccc(C(=O)N2CCCCC2)cc1	inconclusive: 14.1 µM [fluorescent, side channel, single point]	
COc1ccccc1C(=O)NC(=S)Nc1ccccc1N1CCCCC1	inconclusive: 14.1 µM [fluorescent, side channel, single point]	
Cn1c(=O)c(NC2CCCCC2)c2c3c(cccc31)C(=O)c1ccccc1-2	inconclusive: 7.08 µM [fluorescent, side channel, full curve]	
COCCSc1nc(N)c(NC(=O)c2ccc(OC)cc2)c(=O)[nH]1	inconclusive: 12.6 µM [quencher, side channel, partial curve]	
CCCn1nc([N+](=O)[O-])c(C(C#N)c2nc3ccccc3s2)c(Cl)c1=O (stereo not given)	inconclusive: 1.41 µM [quencher, side channel, full curve, poor fit]	
Cc1cc(N2CCOCC2)nc2cc(O)ccc12		inactive: -10.2%
O=C1NC(=O)C2(COC(c3ccccc3Cl)OC2)S1 (stereo not given)	inconclusive: 70.8 µM [fluorescent, side channel, single point]	
Cc1ccc(CN2C(=O)CCC2C(=O)NC(C)C)cc1 (stereo not given)		inactive: -1.79%
CON(C)S(=O)(=O)c1ccc2c(c1)N(Cc1ccc(C)cc1)C(=O)C1CCCN21 (stereo not given)	inconclusive: 22.4 µM [fluorescent, side channel, partial curve]	
OC(CN1CCCCCC1)CN(c1ccccc1)c1ccccc1 (stereo not given)	inconclusive: 11.2 µM [quencher, side channel, full curve, poor fit]	
O=C(Nc1ccc2c(c1)C(=O)OC2)Nc1cccc2ccccc12	inconclusive: 8.91 µM [fluorescent, side channel, single point]	
COC(=O)c1ccccc1NC(=O)C1(S(=O)(=O)c2ccc(Cl)cc2)CC1		inactive: 3.5%
O=C(CN(c1cccc([N+](=O)[O-])c1)S(=O)(=O)c1ccccc1)N1CCCCC1		inactive: 6.4%
CCCN1C(=O)/C(=C/c2ccc(C)o2)SC1=Nc1ccc(OCC)cc1		inactive: 11.2%
COc1cccc(NC(=O)Cc2c(O)c3ccccc3[nH]c2=O)c1	inconclusive: 20 µM [inhibitor, full curve, poor fit]	
Cc1cc(C)n(CC(O)COc2ccccc2[N+](=O)[O-])n1 (stereo not given)	inconclusive: 14.1 µM [fluorescent, side channel, full curve, poor fit]	
CN(CC(=O)Nc1ccccc1Cl)C(=O)CSc1ncc(C(F)(F)F)cc1Cl	inconclusive: 10 µM [quencher, side channel, single point]	
COc1ccc(OCc2nc3c4c(ncn3n2)-c2ccccc2CC42CCCC2)cc1		inactive: 5.86%

SMILES	Potency	activity change, negative = inhibition
COc1cccc(CN(C)C(=O)CNC(=O)c2ccc3c(c2)OCO3)c1OC		inactive: 4.8%
COc1ccc(-c2nn(-c3ccccc3)cc2/C=C/C(=O)OCC(=O)Nc2ccc(C#N)cc2)cc1	inconclusive: 11.2 µM [inhibitor, full curve]	
C#CCOCCOCCOCCNc1nc(N2CCN(C(=O)[C@H](Cc3cc4ccccc4[nH]3)n3cc([C@@H](N)Cc4ccc(O)cc4)nn3)CC2)nc(N2CCN(C(=O)[C@H](Cc3cc4ccccc4[nH]3)n3cc([C@@H](N)CC(C)C)nn3)CC2)n1	inconclusive: 7.94 µM [quencher, side channel, partial curve]	
Cc1ccc(NC(=O)COc2ccc(C(=O)c3ccccc3)cc2)c(O)c1	inconclusive: 12.6 µM [activator, full curve]	
O=C1c2ccccc2-c2onc3ccc(NCc4ccco4)c1c23	inconclusive: 3.98 µM [fluorescent, side channel, full curve]	
COc1ccc(C2C3=C(CC(C)(C)CC3=O)Nc3c2c(=O)[nH]c(=O)n3Cc2ccccc2)cc1 (stereo not given)		inactive: 6.1%
CN(C)c1ccc(/C=C/c2cc[n+](C)cc2)cc1	inconclusive: 35.5 µM [fluorescent, side channel, partial curve]	
Nc1nonc1C(=O)NCCNCc1c(OCc2ccccc2F)ccc2ccccc12	inconclusive: 31.6 µM [quencher, side channel, single point]	
Cn1ccs/c1=N\S(=O)(=O)c1ccc(Br)cc1		inactive: 6.9%
N#Cc1cccc(NC(=O)COC(=O)c2cccc(N3C(=O)c4ccccc4C3=O)c2)c1		inactive: 26.2%
COC(=O)c1c(NC(=O)c2ccn(C)n2)sc2c1CCC2	inconclusive: 8.91 µM [fluorescent, side channel, single point]	
Cc1cc(N=NC(=O)c2ccccc2)ccc1O	inconclusive: 89.1 µM [inhibitor, single point]	
C[Se]CC[C@H](N)C(=O)O		inactive: -7.98%
O=C(CSc1nnc(-c2ccccc2O)o1)Oc1ccc(Br)cc1	inconclusive: 39.8 µM [inhibitor, single point]	
Cc1ccc(NC(=O)NC(=O)c2ccccc2)cc1F		inactive: 15.1%
O=C(O)CNC(=O)c1ccc(NC(=O)/C(=C/c2ccccc2)NC(=O)c2ccccc2)cc1	inconclusive: 14.1 µM [fluorescent, side channel, single point]	
Cn1c(=O)c2c(nc(NCc3cccnc3)n2Cc2ccc(Cl)cc2)n(C)c1=O		inactive: -6.77%
CN1CCc2c(sc(/N=C/c3c[nH]c4ccccc34)c2C(N)=O)C1	inconclusive: 31.6 µM [quencher, side channel, partial curve]	
COC(=O)C1=C(C)N(Cc2ccccc2)C(=NCc2ccc(OC)cc2)N[C@H]1c1ccccc1	inconclusive: 31.6 µM [quencher, side channel, partial curve]	
CCNc1nc(-c2cc(C)n(Cc3ccco3)c2C)cs1		inactive: 11.7%
CC1CCCN(C2(O)C(=O)Nc3ccc(Cl)cc32)C1 (stereo not given)		inactive: 3.15%

Some of the entries so far, with bars between the fields:
SMILES | Potency | activity change, negative = inhibition
O=C(O)CNC(=O)c1ccc(NC(=O)/C(=C/c2ccccc2)NC(=O)c2ccccc2)cc1 | inconclusive: 14.1 µM [fluorescent, side channel, single point] | 
Cn1c(=O)c2c(nc(NCc3cccnc3)n2Cc2ccc(Cl)cc2)n(C)c1=O |  | inactive: -6.77%
